Reference: article doi:10.1101/2023.09.14.557376
Read-outs that look alike come from different tables or passages of the source. No constants are given. Whether binding was seen depends on the method and setting. In cells and extracts the contact can be indirect. These calls come from enrichment with a bait or labelling near it, and not all partners need be listed. Tags and fused reporters may be left off the sequences shown.

The chains behind the UniProt entries cited, without tags or fusion partners. Residues count along the entry.
UniProt P30561, residues 10-848: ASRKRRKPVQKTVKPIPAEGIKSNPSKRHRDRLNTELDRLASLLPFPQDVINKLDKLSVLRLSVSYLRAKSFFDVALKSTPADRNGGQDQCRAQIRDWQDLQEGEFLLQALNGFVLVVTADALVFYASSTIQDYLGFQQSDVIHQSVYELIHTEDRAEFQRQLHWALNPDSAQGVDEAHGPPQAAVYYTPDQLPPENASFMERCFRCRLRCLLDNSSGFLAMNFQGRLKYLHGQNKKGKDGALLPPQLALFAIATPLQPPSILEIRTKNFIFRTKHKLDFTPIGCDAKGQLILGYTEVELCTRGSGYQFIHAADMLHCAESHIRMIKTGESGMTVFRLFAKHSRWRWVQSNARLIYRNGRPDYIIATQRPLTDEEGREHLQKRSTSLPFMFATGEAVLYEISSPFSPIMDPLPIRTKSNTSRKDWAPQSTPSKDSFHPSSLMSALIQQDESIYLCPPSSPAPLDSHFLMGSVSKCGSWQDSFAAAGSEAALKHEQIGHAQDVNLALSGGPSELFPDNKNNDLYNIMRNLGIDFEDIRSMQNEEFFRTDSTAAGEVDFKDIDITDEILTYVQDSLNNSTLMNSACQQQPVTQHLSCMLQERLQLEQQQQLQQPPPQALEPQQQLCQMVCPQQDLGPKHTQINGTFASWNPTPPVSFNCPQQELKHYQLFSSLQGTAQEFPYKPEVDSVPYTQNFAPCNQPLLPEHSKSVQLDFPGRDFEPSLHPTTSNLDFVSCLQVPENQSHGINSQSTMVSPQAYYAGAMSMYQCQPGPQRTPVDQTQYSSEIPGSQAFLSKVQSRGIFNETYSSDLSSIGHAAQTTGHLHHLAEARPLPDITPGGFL
UniProt O08900: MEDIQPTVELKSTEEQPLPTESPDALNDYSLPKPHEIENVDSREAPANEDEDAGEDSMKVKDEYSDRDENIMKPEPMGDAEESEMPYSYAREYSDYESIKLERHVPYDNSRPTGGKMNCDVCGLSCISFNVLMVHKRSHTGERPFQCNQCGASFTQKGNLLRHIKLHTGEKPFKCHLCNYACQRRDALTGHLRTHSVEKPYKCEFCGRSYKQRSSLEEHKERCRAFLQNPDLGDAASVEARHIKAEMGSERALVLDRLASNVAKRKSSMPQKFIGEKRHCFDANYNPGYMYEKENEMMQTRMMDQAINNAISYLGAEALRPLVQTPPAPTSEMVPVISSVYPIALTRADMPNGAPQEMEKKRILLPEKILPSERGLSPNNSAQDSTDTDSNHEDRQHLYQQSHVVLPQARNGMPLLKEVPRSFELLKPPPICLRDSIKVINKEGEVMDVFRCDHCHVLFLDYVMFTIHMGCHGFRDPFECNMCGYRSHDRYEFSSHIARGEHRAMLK
UniProt P97303: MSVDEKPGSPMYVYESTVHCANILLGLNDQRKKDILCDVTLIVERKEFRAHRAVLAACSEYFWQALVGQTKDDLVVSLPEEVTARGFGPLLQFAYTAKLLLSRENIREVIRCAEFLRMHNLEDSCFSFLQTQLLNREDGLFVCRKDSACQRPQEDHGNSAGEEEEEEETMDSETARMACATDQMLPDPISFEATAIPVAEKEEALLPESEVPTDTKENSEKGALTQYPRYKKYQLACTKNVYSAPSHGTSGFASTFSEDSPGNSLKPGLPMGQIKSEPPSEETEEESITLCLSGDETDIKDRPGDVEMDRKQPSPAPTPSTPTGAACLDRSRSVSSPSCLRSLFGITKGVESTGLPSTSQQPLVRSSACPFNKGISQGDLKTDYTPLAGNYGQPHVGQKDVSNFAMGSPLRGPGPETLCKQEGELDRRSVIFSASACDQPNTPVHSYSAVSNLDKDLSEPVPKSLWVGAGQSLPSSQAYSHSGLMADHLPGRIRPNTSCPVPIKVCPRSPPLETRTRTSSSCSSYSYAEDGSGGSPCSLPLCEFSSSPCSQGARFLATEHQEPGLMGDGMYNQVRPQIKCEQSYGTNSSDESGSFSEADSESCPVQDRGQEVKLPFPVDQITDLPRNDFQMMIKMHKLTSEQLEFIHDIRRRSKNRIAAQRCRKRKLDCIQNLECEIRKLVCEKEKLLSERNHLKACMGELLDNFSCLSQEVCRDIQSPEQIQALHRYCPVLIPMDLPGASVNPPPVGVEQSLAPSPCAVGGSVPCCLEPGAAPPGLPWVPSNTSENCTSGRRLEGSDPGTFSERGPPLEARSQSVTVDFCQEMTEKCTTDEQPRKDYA
UniProt P11440: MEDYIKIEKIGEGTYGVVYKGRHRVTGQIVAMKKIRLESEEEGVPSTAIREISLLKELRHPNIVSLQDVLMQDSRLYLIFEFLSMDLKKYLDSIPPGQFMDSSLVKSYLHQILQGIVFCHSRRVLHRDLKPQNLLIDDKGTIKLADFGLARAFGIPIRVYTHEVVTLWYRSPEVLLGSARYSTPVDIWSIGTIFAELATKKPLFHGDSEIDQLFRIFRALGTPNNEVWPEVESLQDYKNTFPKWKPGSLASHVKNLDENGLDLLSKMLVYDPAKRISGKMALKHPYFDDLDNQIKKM
UniProt Q99J95: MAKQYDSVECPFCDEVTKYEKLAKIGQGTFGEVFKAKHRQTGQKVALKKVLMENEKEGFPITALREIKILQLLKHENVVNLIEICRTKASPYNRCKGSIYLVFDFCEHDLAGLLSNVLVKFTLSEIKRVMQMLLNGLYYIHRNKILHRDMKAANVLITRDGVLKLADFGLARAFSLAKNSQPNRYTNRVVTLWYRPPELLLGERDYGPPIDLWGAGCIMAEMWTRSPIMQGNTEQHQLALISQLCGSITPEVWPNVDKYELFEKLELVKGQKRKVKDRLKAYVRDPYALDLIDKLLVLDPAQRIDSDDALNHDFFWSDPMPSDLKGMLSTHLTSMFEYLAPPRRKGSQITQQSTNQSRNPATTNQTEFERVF
UniProt O09106: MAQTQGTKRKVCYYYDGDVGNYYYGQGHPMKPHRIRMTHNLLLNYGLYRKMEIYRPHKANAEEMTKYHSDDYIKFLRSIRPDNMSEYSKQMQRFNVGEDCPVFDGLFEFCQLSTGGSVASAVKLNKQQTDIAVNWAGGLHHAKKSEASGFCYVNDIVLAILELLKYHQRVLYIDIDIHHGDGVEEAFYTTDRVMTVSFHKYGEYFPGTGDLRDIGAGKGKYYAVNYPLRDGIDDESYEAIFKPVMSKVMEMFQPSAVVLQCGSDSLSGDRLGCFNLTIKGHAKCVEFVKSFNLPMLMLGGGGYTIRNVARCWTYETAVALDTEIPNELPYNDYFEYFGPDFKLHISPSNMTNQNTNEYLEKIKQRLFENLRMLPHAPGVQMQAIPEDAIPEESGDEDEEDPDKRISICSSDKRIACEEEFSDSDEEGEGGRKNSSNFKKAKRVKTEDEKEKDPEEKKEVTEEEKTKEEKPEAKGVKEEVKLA
UniProt Q03267: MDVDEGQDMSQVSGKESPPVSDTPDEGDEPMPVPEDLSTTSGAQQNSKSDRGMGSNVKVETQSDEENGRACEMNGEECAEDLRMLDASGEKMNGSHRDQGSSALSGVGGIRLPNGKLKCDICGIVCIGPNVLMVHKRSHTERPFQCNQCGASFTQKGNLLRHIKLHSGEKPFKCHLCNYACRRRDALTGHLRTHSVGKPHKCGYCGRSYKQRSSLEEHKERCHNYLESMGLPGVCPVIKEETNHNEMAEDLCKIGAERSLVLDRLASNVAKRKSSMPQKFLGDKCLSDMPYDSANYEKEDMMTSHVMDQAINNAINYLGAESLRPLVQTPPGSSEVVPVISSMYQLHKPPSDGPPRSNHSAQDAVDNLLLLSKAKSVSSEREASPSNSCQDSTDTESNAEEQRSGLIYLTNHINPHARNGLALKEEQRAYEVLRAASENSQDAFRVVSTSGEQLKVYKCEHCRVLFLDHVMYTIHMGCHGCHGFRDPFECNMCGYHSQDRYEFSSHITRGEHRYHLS
UniProt Q9Z127: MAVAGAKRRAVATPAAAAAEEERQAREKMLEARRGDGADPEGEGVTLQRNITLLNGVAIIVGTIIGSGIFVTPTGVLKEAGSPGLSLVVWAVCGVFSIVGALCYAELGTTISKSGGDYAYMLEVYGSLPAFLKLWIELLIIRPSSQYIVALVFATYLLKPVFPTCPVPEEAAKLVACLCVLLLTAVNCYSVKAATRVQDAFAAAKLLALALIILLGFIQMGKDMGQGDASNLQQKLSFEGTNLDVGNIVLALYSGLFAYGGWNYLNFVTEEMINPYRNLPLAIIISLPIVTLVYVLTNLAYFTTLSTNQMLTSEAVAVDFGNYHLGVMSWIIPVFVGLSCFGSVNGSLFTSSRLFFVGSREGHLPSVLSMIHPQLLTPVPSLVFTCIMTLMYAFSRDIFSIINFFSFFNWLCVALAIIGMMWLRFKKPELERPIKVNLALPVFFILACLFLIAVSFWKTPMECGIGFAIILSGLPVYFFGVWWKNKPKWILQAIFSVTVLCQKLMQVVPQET
UniProt Q2TBA3: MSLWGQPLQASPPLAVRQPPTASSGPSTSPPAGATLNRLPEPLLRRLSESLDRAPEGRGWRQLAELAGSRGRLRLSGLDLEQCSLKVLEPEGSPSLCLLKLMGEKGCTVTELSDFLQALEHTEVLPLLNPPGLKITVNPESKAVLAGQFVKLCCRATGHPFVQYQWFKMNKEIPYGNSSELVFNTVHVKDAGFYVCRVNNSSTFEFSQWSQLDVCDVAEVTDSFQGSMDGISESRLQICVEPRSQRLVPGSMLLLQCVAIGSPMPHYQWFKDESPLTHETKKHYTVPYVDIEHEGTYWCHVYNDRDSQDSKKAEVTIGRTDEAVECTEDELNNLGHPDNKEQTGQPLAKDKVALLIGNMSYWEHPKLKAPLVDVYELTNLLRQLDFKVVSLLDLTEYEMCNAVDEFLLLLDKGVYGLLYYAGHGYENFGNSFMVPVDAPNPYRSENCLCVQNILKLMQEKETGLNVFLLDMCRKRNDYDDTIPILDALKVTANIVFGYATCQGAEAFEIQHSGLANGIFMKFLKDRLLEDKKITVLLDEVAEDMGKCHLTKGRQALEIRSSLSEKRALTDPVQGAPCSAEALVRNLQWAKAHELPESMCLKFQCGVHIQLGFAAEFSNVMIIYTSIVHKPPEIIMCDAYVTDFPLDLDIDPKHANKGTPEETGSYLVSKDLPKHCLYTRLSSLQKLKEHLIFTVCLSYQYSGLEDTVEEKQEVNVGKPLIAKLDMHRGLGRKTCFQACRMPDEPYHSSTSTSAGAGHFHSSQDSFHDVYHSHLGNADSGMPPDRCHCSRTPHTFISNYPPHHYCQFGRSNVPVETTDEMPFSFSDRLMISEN
UniProt P25799: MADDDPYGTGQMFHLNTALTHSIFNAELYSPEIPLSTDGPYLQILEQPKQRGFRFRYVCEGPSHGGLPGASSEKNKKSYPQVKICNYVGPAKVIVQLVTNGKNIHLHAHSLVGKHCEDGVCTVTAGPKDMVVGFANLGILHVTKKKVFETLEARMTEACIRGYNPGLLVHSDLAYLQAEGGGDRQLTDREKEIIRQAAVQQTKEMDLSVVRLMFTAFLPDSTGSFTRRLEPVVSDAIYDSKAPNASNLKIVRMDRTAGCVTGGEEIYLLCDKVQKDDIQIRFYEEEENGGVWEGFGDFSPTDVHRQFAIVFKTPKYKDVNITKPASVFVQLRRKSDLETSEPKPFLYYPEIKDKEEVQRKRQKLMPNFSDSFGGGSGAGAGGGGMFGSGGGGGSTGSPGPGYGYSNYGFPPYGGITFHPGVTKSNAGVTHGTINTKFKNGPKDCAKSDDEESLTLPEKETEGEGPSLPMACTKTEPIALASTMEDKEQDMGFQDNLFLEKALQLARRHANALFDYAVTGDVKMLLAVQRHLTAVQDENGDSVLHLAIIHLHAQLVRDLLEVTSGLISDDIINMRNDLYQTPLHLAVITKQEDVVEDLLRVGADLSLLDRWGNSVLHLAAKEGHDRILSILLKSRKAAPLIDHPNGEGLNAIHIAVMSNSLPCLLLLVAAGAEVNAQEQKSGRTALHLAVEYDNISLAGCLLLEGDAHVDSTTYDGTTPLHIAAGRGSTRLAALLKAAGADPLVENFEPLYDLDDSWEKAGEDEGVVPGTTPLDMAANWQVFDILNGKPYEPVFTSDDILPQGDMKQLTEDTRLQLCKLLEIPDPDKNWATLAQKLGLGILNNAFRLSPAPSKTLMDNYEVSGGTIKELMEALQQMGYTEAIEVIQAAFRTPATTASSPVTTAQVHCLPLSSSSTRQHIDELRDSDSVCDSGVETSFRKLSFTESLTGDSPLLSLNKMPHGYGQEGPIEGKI
UniProt Q00417: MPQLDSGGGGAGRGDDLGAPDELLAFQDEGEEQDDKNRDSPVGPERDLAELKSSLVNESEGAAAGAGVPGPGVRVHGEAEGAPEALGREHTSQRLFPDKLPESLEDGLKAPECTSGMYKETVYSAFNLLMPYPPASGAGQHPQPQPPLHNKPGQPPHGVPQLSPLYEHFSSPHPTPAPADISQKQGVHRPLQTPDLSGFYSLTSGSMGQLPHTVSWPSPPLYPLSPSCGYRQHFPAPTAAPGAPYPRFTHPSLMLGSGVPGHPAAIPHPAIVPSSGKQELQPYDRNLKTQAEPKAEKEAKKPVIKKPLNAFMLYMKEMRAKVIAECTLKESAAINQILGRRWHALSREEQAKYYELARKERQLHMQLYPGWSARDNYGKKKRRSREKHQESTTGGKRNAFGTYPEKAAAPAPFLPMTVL

T1: biotinylated IRF4 (IRF4-Avi-tag fusion protein, interferon regulatory factor 4) (mouse) (UniProt Q64287)
T1 sequence (chain, biotin on the Avi-tag (BirA-mediated in vivo biotinylation)): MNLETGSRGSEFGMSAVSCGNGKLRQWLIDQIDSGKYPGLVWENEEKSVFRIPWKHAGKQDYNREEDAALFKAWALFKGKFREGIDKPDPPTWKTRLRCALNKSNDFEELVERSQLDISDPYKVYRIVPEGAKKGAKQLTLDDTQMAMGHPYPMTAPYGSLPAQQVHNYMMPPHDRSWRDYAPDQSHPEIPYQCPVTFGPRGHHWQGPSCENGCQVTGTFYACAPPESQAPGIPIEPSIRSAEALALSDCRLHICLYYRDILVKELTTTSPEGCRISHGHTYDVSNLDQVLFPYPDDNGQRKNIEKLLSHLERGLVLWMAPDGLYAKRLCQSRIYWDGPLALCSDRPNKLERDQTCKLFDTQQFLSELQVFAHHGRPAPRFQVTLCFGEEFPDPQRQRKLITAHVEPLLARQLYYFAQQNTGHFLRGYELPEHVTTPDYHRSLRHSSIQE

T2: biotinylated IRF4 (IRF4-Avi-tag fusion protein, interferon regulatory factor 4) (mouse), Q64287
T2 chain: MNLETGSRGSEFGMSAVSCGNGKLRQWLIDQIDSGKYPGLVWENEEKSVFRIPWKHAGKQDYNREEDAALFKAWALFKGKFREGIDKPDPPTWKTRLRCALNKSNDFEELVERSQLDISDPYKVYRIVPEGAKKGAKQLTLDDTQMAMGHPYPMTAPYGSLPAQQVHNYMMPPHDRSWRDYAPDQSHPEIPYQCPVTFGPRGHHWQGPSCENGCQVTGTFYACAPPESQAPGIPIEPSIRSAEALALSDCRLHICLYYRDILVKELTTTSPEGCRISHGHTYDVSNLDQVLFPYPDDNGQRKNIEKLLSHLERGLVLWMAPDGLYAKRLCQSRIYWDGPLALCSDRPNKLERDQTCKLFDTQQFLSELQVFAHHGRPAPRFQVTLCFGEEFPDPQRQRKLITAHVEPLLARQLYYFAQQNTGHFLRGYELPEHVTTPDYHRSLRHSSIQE


What was measured:
Test in all cases: affinity purification with mass spectrometry
[1] = biological target: T1, biotinylated IRF4 (IRF4-Avi-tag fusion protein, interferon regulatory factor 4) (mouse)
[2] = biological target: T1, biotinylated IRF4 (IRF4-Avi-tag fusion protein, interferon regulatory factor 4) (mouse); remark: listed apart in the source
[3] = biological target: T2, biotinylated IRF4 (IRF4-Avi-tag fusion …); conditions: remark: other sources report otherwise

binding [1]	binding [2]	binding [3]	Molecule
binds	–	–	AHR (from UniProt P30561 10-848)
binds	binds	–	Aiolos (from UniProt O08900 1-507)
binds	–	–	BACH2 (from UniProt P97303 1-839)
binds	–	–	CBP (from UniProt P45481 1-2441)
binds	–	–	CDK1 (from UniProt P11440 1-297) (enzyme)
binds	–	–	CDK2 (from UniProt P97377 1-346) (enzyme)
binds	–	–	CDK9 (from UniProt Q99J95 1-372) (enzyme)
binds	–	–	HDAC1 (from UniProt O09106 1-482) (enzyme)
binds	binds	–	Ikaros (from UniProt Q03267 1-517)
binds	–	–	LAT1 (Slc7a5) (from UniProt Q9Z127 1-512)
binds	–	–	MALT1 (from UniProt Q2TBA3 1-832)
binds	–	–	NFKB1 (from UniProt P25799 1-971)
binds	–	–	RORγt (from UniProt P51450-2 1-495)
binds	–	–	TCF7 (transcription factor 7 or T cell factor 1, TCF1) (from UniProt Q00417 1-419)
–	binds	–	FLI1 (protein, UniProt P26323 1-452) MDGTIKEALSVVSDDQSLFDSAYGAAAHLPKADMTASGSPDYGQPHKINPLPPQQEWINQPVRVNVKREYDHMNGSRESPVDCSVSKCNKLVGGGEANPMNYNSYMDEKNGPPPPNMTTNERRVIVPADPTLWTQEHVRQWLEWAIKEYGLMEIDTSFFQNMDGKELCKMNKEDFLRATSAYNTEVLLSHLSYLRESSLLAYNTTSHTDQSSRLNVKEDPSYDSVRRGAWNNNMNSGLNKSPLLGGSQTMGKNTEQRPQPDPYQILGPTSSRLANPGSGQIQLWQFLLELLSDSANASCITWEGTNGEFKMTDPDEVARRWGERKSKPNMNYDKLSRALRYYYDKNIMTKVHGKRYAYKFDFHGIAQALQPHPTETSMYKYPSDISYMPSYHAHQQKVNFVPSHPSSMPVTSSSFFGAASQYWTSPTAGIYPNPSVPRHPNTHVPSHLGSYY
–	binds	–	ZMYM2 (protein, UniProt Q9CU65 1-1376) MDTSSVGTLELTDQTPVLLGSTAMATSLTNVGNSFSGPPNPLVSRSSKFQNSSVEDDDDVVFIEPVQPPPSSAPLVADQRPITFTSSKNEELQGNDPKILPSSKELAPQKGSVSETIVIDDEEDMETNQGQEKSSSNFIERRPSETKNRTNDVDFSSSTFSRSKVNAGVSNSGITTEPDSEIQIANVTTLETGVSSVSDGQLESTDGRDMNLMITHVTSLHNTSLGDGSNGLQSSNFGVNIQTYTPSLTSQTKAGVGPFNPGRMNVAGDVFQNGESAPHHNPDSWISQSASFPRNQKQQGVDSLSPVASLPKQIFQPSNQQPTKPVKVTCANCKKPLQKGQTAYQRKGSAHLFCSTTCLSSFSHKPAPKKLCVMCKKDITTMKGTIVAQVDSSESFQEFCSTSCLSLYEDKQSPAKGALNKSRCTICGKLTEIRHEVSFKNMTHKLCSDHCFNRYRMANGLIMNCCEQCGEYLPSKGAGNNVLVVDGQQKRFCCQSCVTEYKQVGSHPSFLKEVRDHMQDSFLMQPEKYGKLTTCTGCRTQCRFFDMTQCIGPNGYMEPYCSTACMNSHKTKYAKSQSLGIICHFCKRNSLPQYQATMPDGKLYNFCNSSCVAKFQALSMQSSPNGQFVAPSDIQLKCNYCKNSFCSKPEILEWENKVHQFCSKTCSDDYKKLHCIVTYCEYCQEEKTLHETVNFSGVKRPFCSEGCKLLYKQDFARRLGLRCVTCNYCSQLCKKGATKELDGVVRDFCSEDCCKKFQEWYYKAARCDCCKSQGTLKERVQWRGEMKHFCDQHCLLRFYCQQNEPNMTTQKGPENLHYDQGCQTSRTKMTGSAPPPSPTPNKEMKNKAILCKPLTMTKATYCKPHMQTKSCQTDENWKTEYVPVPIPVPVYVPVPMHMYSQNIPVPTTVPVPVPVPVFLPAPLDSSEKIPATVEDLKSKVSSDPLDSELLTMTDMMTEEEGKAEASNINSVIIETDIIGSDLTKNSDPDIQSNMPDVPYEPDLDIEIDFPRAAEELDMENEFLLPPVFGEEYEEQPRPRSKKKGTKRKAVSGYQSHDDSSDNSECSFPFKYTYGVNAWKHWVKTRQLDEDLLVLDELKSSKSVKLKEDLLSHTTAELNYGLAHFVNEIRRPNGENYAPDSIYYLCLGIQEYLCGSNRKDNIFIDPGYQMFEQELNKILRSWQPSILPDGSIFSRVEEDYLWRIKQLGSHSPVALLNTLFYFNTKYFGLKTVEQHLRLSFGTVFRHWKKNPLTMENKACLRYQVSSLCGTDNEDKIATGKRKHEDDEPVFEQVENTANPSRCPVKMFECYLSKSPQNLNQRMDVFYLQPECSSSTDSPVWYTSTSLDRNTLENMLVRVLLVKDIYDKDNYELDEDTD
–	binds	–	JunB (protein, UniProt P09450 1-344) MCTKMEQPFYHDDSYAAAGYGRSPGSLSLHDYKLLKPTLALNLADPYRGLKGPGARGPGPEGSGAGSYFSGQGSDTGASLKLASTELERLIVPNSNGVITTTPTPPGQYFYPRGGGSGGGTGGGVTEEQEGFADGFVKALDDLHKMNHVTPPNVSLGASGGPQAGPGGVYAGPEPPPVYTNLSSYSPASAPSGGSGTAVGTGSSYPTATISYLPHAPPFAGGHPAQLGLSRGASAFKEEPQTVPEARSRDATPPVSPINMEDQERIKVERKRLRNRLAATKCRKRKLERIARLEDKVKTLKAENAGLSSAAGLLREQVAQLKQKVMTHVSNGCQLLLGVKGHAF
–	–	binds	FOXP3, Q99JB6 1-417 (protein, here or on the partner: biotin on the Avi-tag (BirA-mediated in vivo biotinylation)) MPNPRPAKPMAPSLALGPSPGVLPSWKTAPKGSELLGTRGSGGPFQGRDLRSGAHTSSSLNPLPPSQLQLPTVPLVMVAPSGARLGPSPHLQALLQDRPHFMHQLSTVDAHAQTPVLQVRPLDNPAMISLPPPSAATGVFSLKARPGLPPGINVASLEWVSREPALLCTFPRSGTPRKDSNLLAAPQGSYPLLANGVCKWPGCEKVFEEPEEFLKHCQADHLLDEKGKAQCLLQREVVQSLEQQLELEKEKLGAMQAHLAGKMALAKAPSVASMDKSSCCIVATSTQGSVLPAWSAPREAPDGGLFAVRRHLWGSHGNSSFPEFFHNMDYFKYHNMRPPFTYATLIRWAILEAPERQRTLNEIYHWFTRMFAYFRNHPATWKNAIRHNLSLHKCFVRVESEKGAVWTVDEFEFRKKR
–	binds	–	SUFU (protein, UniProt Q9Z0P7 1-484) MAELRPSVAPGPAAPPASGPSAPPAFASLFPPGLHAIYGECRRLYPDQPNPLQVTAIVKYWLGGPDPLDYVSMYRNMGSPSANIPEHWHYISFGLSDLYGDNRVHEFTGTDGPSGFGFELTFRLKRETGESAPPTWPAELMQGLARYVFQSENTFCSGDHVSWHSPLDNSESRIQHMLLTEDPQMQPVRTPFGVVTFLQIVGVCTEELHSAQQWNGQGILELLRTVPIAGGPWLITDMRRGETIFEIDPHLQERVDKGIETDGSNLSGVSAKCAWDDLSRPPEDEEDSRSICLGTQPRRLSGKDTEQIRETLRRGLEINSKPVLPPINSQRQNGLTHDRAPSRKDSLGSDSSTAIIPHELIRTRQLESVHLKFNQESGALIPLCLRGRLLHGRHFTYKSITGDMAITFVSTGVEGAFATEEHPYAAHGPWLQILLTEEFVEKMLEDLEDLTSPEEFKLPKEYSWPEKKLKVSILPDVVFDSPLH
–	binds	–	RFX1 (protein, UniProt P48377 1-963) MATQSYVTELQAAPQASQPPQAPPQALPQPPPPAAPQPPAAATPQPQYVTELQSPQPQTQPPGSQKQYVAELPAAPAPSQPATPAPSPVAQQYIVVTVSEGAMRASETVSEASPSSTASQTGVPTQVVQQVQGTQQRLLVQASVQAKPGHVSPLQLTNIQVPQQAIPTQHLVVQSPAPGTKSGQVSLTVHSAQQVHSAPERSPVQANNSTSKTAGTPAATVQQLQVHSVQQSVPVTQERSVVQATPQTKAGPVQQLTVQGLQPVHVAQEVQQLPQVPVPHVYSSQVQYVEGGDASYTASAIRSSTYQYPETPIYTQTAGTSYYEASGTAAQVSTPATSQTVASSGSVPMYVSGSPIVASSSSSEAGASNSSVGAGGNGGGGSSGGGSGGSSGSGAGTYVIQGGYMLGNASQSYSHTTRASPATVQWLLDNYETAEGVSLPRSTLYCHYLLHCQEQKLEPVNAASFGKLIRSVFMGLRTRRLGTRGNSKYHYYGLRIKASSPLLRLMEDQQHMAMRGQPFSQKQRLKPIQKMEGVANGVAVGQQSTGLSDISAQVQQYQQFLDASRSLPDFAELDLQGKVLPEGVGPGDIKAFQVLYREHCEAIVDVMVNLQFTLVETLWKTFWRYNLSQPSEAPPLAVHDEAEKRLPRASLVLLSKFQPVLQWTKHCDNVLYQGLVEILIPDVLRPIPSALTQAIRNFAKSLESWLTHAMVNIPEEMLRVKVAAAGAFAQTLRRYTSLNHLAQAARAVLQNTAQINQMLSDLNRVDFANVQEQASWVCRCEDRVVQRLEQDFKVTLQQQNSLEQWAAWLDGVVSQVLKPYQGSSGFPKAAKLFLLKWSFYSSMVIRDLTLRSAASFGSFHLIRLLYDEYMYYLIEHRVAQAKGETPIAVMGEFANLATSLNPLDPDKDEEEEEEEESEDELPQDISLAAGSESPALGPEALEPPAKLARTDTRGLFVQALPSS
